Experiment [1] concerns the target AtMED36 fused with the GAL4 DNA-binding domain (pDEST32 bait) (Arabidopsis thaliana) (UniProt Q94AH9). As to the kind of experiment: two-hybrid.
The target of experiment [2] is AtMED19 fused with the GAL4 DNA-binding domain (pDEST32 bait) (Arabidopsis thaliana) (UniProt Q9FMP0). As to the kind of experiment: two-hybrid.
Experiment [3] has as its target AtMED32 fused with the GAL4 DNA-binding domain (pDEST32 bait) (Arabidopsis thaliana) (UniProt Q84VW5). As to the kind of experiment: two-hybrid.
In experiment [4] the target is AtMED8 fused with the GAL4 DNA-binding domain (pDEST32 bait) (Arabidopsis thaliana) (UniProt Q4V3C1). As to the kind of experiment: two-hybrid.
Experiment [5] addresses AtMED16 fused with the GAL4 DNA-binding domain (pDEST32 bait) (Arabidopsis thaliana) (UniProt F4JGZ1). Briefly: two-hybrid.
In experiment [6] the target is AtMED34 fused with the GAL4 DNA-binding domain (pDEST32 bait) (Arabidopsis thaliana) (UniProt Q9FT73). As to the kind of experiment: two-hybrid.
Experiment [7] concerns the target AtMED28 fused with the GAL4 DNA-binding domain (pDEST32 bait) (Arabidopsis thaliana) (UniProt Q9LFA5). As to the kind of experiment: two-hybrid.
Experiment [8] addresses T1, AtMED25 fused to the N-terminus of YFP (rice protoplasts) (Arabidopsis thaliana) (UniProt Q7XYY2).
T1 sequence: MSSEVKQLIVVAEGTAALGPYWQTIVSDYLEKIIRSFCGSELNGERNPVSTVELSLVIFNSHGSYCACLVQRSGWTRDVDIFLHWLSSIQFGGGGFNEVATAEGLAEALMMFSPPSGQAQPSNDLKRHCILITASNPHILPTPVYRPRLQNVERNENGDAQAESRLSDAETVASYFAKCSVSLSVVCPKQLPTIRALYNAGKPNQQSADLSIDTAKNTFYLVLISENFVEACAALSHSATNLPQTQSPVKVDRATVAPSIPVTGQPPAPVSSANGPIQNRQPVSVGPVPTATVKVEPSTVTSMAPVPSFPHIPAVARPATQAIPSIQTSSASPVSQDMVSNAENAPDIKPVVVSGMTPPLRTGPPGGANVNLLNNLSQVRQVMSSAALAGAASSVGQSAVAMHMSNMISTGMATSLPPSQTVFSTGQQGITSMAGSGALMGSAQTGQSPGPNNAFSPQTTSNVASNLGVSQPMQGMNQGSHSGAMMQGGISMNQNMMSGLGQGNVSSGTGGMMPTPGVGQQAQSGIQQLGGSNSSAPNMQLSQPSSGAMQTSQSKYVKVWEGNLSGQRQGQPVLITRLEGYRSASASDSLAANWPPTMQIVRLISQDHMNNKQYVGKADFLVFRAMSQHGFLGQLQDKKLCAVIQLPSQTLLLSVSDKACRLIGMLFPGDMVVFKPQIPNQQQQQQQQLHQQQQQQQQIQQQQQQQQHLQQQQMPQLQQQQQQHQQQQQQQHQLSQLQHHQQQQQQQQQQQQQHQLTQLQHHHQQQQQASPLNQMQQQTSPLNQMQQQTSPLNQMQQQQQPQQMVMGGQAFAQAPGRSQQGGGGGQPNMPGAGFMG
Briefly: split reporter.

Protein sequences, listed by entry. Tags and fused reporters are not part of them. Lines headed by an entry give the natural chain unless they say otherwise; changes in a name come on top.
UniProt Q94AH9: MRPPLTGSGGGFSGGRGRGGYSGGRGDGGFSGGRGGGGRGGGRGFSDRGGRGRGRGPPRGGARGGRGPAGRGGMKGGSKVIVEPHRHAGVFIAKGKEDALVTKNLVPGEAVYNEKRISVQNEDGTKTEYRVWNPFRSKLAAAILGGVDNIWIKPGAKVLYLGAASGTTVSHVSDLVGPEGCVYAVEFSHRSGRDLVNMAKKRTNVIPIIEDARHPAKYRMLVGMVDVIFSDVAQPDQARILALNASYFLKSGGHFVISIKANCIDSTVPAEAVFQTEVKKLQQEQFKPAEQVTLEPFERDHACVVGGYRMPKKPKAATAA
UniProt Q9FMP0: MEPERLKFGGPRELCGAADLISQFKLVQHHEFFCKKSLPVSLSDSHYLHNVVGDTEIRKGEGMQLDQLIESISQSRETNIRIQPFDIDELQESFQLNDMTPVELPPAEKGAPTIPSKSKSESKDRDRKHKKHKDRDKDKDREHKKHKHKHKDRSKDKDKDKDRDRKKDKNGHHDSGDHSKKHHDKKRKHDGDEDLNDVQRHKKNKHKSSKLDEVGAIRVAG
UniProt Q84VW5: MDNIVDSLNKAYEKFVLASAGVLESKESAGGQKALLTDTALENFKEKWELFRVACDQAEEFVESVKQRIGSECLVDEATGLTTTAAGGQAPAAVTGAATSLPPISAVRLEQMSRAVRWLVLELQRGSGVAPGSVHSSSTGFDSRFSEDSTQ
UniProt Q4V3C1: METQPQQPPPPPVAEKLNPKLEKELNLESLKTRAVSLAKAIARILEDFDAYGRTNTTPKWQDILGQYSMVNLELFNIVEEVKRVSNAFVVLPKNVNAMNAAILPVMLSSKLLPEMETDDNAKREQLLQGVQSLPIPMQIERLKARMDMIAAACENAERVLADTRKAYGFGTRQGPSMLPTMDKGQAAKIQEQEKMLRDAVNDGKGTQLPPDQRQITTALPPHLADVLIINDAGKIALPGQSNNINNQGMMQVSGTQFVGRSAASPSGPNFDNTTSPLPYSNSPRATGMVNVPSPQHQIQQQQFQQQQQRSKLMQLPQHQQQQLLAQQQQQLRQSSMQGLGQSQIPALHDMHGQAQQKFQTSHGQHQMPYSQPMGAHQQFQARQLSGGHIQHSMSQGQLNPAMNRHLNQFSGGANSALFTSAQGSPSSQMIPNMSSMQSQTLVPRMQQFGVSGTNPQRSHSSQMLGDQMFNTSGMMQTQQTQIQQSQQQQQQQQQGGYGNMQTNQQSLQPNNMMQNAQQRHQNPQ
UniProt F4JGZ1: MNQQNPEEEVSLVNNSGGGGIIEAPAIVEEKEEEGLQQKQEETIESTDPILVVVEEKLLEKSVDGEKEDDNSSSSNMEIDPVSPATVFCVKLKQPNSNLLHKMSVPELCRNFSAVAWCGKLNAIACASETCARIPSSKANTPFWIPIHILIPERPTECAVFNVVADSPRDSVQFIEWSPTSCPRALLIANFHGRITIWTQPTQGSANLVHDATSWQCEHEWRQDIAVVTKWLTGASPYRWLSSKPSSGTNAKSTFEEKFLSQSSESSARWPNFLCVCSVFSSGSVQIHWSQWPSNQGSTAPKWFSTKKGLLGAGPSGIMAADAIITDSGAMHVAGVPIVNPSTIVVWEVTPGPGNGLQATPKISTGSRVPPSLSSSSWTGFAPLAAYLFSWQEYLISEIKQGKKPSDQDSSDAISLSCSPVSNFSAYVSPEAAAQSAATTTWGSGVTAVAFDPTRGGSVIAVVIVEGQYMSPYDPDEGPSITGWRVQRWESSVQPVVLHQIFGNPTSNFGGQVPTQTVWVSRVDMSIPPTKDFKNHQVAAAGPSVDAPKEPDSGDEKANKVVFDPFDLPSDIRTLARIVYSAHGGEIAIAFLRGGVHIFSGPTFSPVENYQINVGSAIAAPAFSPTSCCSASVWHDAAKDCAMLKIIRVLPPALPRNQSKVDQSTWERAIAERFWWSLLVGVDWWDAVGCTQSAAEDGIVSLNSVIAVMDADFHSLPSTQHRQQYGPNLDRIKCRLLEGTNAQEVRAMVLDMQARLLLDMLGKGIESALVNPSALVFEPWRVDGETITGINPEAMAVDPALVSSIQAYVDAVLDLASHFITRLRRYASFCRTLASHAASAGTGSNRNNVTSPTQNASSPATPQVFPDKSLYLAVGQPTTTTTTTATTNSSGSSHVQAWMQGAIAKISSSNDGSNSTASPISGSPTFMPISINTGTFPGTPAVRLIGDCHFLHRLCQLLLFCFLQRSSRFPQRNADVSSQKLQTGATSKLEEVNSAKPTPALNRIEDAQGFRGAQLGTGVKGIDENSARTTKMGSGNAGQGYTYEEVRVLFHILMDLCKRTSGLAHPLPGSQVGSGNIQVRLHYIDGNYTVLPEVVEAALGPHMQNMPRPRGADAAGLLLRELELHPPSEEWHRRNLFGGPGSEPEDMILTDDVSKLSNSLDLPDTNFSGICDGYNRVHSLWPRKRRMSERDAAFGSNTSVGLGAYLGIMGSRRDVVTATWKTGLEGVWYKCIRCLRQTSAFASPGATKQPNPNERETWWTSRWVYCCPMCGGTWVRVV
UniProt Q9FT73: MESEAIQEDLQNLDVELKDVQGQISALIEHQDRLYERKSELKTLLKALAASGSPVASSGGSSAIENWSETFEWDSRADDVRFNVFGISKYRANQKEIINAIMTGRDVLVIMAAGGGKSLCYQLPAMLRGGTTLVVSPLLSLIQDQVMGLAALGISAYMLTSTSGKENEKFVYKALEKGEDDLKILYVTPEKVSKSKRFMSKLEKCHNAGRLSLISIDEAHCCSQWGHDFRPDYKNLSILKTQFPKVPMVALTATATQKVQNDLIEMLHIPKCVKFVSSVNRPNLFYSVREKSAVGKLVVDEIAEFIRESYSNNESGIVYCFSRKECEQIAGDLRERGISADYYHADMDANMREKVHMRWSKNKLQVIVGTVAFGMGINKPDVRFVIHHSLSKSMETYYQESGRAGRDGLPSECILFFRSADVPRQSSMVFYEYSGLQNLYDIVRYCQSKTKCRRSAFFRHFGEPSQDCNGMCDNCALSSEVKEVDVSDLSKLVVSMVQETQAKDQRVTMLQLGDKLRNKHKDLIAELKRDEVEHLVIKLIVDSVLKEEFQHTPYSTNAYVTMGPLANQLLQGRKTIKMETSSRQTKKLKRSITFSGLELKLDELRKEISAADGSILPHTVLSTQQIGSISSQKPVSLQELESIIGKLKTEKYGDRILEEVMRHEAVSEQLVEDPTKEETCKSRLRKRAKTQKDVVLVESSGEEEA
UniProt Q9LFA5: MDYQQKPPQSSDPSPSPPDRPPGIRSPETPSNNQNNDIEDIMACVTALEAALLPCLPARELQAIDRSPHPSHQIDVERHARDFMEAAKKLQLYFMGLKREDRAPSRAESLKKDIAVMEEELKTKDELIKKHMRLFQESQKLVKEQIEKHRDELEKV
UniProt Q9LUM4: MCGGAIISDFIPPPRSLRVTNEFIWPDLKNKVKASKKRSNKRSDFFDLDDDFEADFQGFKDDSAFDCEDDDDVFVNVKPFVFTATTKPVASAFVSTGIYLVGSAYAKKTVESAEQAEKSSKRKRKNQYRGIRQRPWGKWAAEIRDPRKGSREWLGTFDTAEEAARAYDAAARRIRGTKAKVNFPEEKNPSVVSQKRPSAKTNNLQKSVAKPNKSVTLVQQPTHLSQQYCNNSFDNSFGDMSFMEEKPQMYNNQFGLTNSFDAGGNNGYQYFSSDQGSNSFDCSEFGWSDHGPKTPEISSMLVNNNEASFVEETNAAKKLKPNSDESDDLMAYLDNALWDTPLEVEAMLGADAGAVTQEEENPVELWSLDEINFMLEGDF
UniProt Q9SSA8: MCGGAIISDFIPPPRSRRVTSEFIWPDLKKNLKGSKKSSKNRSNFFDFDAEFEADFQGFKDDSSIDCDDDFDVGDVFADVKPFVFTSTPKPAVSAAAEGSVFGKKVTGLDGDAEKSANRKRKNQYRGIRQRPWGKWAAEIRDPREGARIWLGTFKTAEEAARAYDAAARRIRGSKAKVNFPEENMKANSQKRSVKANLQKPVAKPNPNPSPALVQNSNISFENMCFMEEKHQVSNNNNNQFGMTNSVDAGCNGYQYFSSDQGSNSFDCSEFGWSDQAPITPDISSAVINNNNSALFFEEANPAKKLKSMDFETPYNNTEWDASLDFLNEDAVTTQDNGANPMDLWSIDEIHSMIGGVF

In experiment [9] the target is T2, AtMED25 fused with the GAL4 DNA binding domain (full-length, pDEST32 bait) (Arabidopsis thaliana) (UniProt Q7XYY2).
T2 sequence: T1 sequence
As to the kind of experiment: two-hybrid.

Results are given in words; binding and its absence hold for the method and conditions named. For some of these results: Binding calls can cover weak binding; strength is not graded here. For some of these results: Where a sequence is shown, tags or fusion partners need not be part of it. For some of these results: Binding seen in cells or lysates may run through a third protein.

Among the data in article doi:10.1101/2024.01.26.577166 are binding values, retold here.

For the substance “RAP2.2 fused with the GAL4 activation domain (full-length, pDEST22 prey) (from UniProt Q9LUM4 1-379)”, the binding entry in experiment [1], in [2], in [3], in [4], in [5] and in experiment [6] was “no binding” throughout. The binding result in experiment [7] is reported as “no binding”.

“RAP2.12 fused with the GAL4 activation domain (full-length, pDEST22 prey) (from UniProt Q9SSA8 1-358)”: the binding entry in [1], in experiment [2], in experiment [3], in experiment [4], in experiment [5] and in [6] was “no binding” in each case. For the same substance, the binding entry in [7] is “no binding”.

With “SUB1A fused to the C-terminus of YFP (rice protoplasts) (Oryza sativa (rice))”, in experiment [8], the binding result is “binds”.

On to “SUB1A fused with the GAL4 activation domain (pDEST22 prey) (Oryza sativa (rice))”, for which, in [9], the binding entry was “binds”.
